Results are given in words; binding and its absence hold for the method and conditions named. Binding seen in cells or lysates may run through a third protein. Some results given as binding are weak or reduced against the parent protein; the word gives no strength. For part of these data: Where a sequence is shown, tags or fusion partners need not be part of it. One block for each molecule: values may come before it.
Columns and labels:
[1] = target: p11-myc-DDK (human) (UniProt P60903); assay: co-IP; HEK293 co-transfected with p11-myc-DDK and α-, βHA-, γ-ENaC; two sequential rounds of immunoprecipitation with anti-HA and anti-DDK; Western blot with anti-HA and anti-myc DDK
[2] = target: p11-myc-DDK (human) (UniProt P60903); assay: co-IP; HEK293 co-transfected with p11-myc-DDK and α-, βHA-, γ-ENaC; lysed after 24 h in 1% Triton in TBS; mouse anti-p11 antibody and protein G-agarose; blot with anti-HA and anti-p11
[3] = target: GST-p11 (p11 protein tagged with glutathione S-transferase) (UniProt P60903); assay: pull-down; 50 μg GST-p11 or GST alone on glutathione-agarose beads incubated 3 h at 4°C with COS-7 lysates containing HA-tagged ENaC (precleared with GST beads); washed with 1% Triton in PBS; anti-HA immunoblot; only the target purified

Amino acid sequences for entries named in this document (tags omitted).
UniProt P60903: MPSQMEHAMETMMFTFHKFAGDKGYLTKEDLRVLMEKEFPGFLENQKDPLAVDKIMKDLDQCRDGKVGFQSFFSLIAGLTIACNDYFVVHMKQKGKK

- binding [1]: binds
- binding [2]: binds
Molecule: αβHAγ ENaC (α-, βHA-, and γ-ENaC co-expressed) in HEK293 cells (from UniProt P37088 1-669; P51168 1-640; P51170 1-649) (complex)

- binding [3]: binds
Molecule: αβHAγ ENaC channel complex (trimeric complex of α-, βHA-, and γ-ENaC) in COS-7 cells (from UniProt P37088 1-669; P51168 1-640; P51170 1-649)

- binding [3]: binds
B1: HA-tagged β-ENaC subunit, expressed alone (protein, UniProt P51168 1-640)
chain: MHVKKYLLKGLHRLQKGPGYTYKELLVWYCDNTNTHGPKRIICEGPKKKAMWFLLTLLFAALVCWQWGIFIRTYLSWEVSVSLSVGFKTMDFPAVTICNASPFKYSKIKHLLKDLDELMEAVLERILAPELSHANATRNLNFSIWNHTPLVLIDERNPHHPMVLDLFGDNHNGLTSSSASEKICNAHGCKMAMRLCSLNRTQCTFRNFTSATQALTEWYILQATNIFAQVPQQELVEMSYPGEQMILACLFGAEPCNYRNFTSIFYPHYGNCYIFNWGMTEKALPSANPGTEFGLKLILDIGQEDYVPFLASTAGVRLMLHEQRSYPFIRDEGIYAMSGTETSIGVLVDKLQRMGEPYSPCTVNGSEVPVQNFYSDYNTTYSIQACLRSCFQDHMIRNCNCGHYLYPLPRGEKYCNNRDFPDWAHCYSDLQMSVAQRETCIGMCKESCNDTQYKMTISMADWPSEASEDWIFHVLSQERDQSTNITLSRKGIVKLNIYFQEFNYRTIEESAANNIVWLLSNLGGQFGFWMGGSVLCLIEFGEIIIDFVWITIIKLVALAKSLRQRRAQASYAGPPPTVAELVEAHTNFGFQPDTAPRSPNTGPYPSEQALPIPGTPPPNYDSLRLQPLDVIESDSEGDAI

- binding [3]: binds
B2: HA-tagged α-ENaC subunit, expressed alone (protein, UniProt P37088 1-669)
chain: MEGNKLEEQDSSPPQSTPGLMKGNKREEQGLGPEPAAPQQPTAEEEALIEFHRSYRELFEFFCNNTTIHGAIRLVCSQHNRMKTAFWAVLWLCTFGMMYWQFGLLFGEYFSYPVSLNINLNSDKLVFPAVTICTLNPYRYPEIKEELEELDRITEQTLFDLYKYSSFTTLVAGSRSRRDLRGTLPHPLQRLRVPPPPHGARRARSVASSLRDNNPQVDWKDWKIGFQLCNQNKSDCFYQTYSSGVDAVREWYRFHYINILSRLPETLPSLEEDTLGNFIFACRFNQVSCNQANYSHFHHPMYGNCYTFNDKNNSNLWMSSMPGINNGLSLMLRAEQNDFIPLLSTVTGARVMVHGQDEPAFMDDGGFNLRPGVETSISMRKETLDRLGGDYGDCTKNGSDVPVENLYPSKYTQQVCIHSCFQESMIKECGCAYIFYPRPQNVEYCDYRKHSSWGYCYYKLQVDFSSDHLGCFTKCRKPCSVTSYQLSAGYSRWPSVTSQEWVFQMLSRQNNYTVNNKRNGVAKVNIFFKELNYKTNSESPSVTMVTLLSNLGSQWSLWFGSSVLSVVEMAELVFDLLVIMFLMLLRRFRSRYWSPGRGGRGAQEVASTLASSPPSHFCPHPMSLSLSQPGPAPSPALTAPPPAYATLGPRPSPGGSAGASSSTCPLGGP

- binding [3]: binds
B3: HA-tagged γ-ENaC subunit, expressed alone (protein, UniProt P51170 1-649)
chain: MAPGEKIKAKIKKNLPVTGPQAPTIKELMRWYCLNTNTHGCRRIVVSRGRLRRLLWIGFTLTAVALILWQCALLVFSFYTVSVSIKVHFRKLDFPAVTICNINPYKYSTVRHLLADLEQETREALKSLYGFPESRKRREAESWNSVSEGKQPRFSHRIPLLIFDQDEKGKARDFFTGRKRKVGGSIIHKASNVMHIESKQVVGFQLCSNDTSDCATYTFSSGINAIQEWYKLHYMNIMAQVPLEKKINMSYSAEELLVTCFFDGVSCDARNFTLFHHPMHGNCYTFNNRENETILSTSMGGSEYGLQVILYINEEEYNPFLVSSTGAKVIIHRQDEYPFVEDVGTEIETAMVTSIGMHLTESFKLSEPYSQCTEDGSDVPIRNIYNAAYSLQICLHSCFQTKMVEKCGCAQYSQPLPPAANYCNYQQHPNWMYCYYQLHRAFVQEELGCQSVCKEACSFKEWTLTTSLAQWPSVVSEKWLLPVLTWDQGRQVNKKLNKTDLAKLLIFYKDLNQRSIMESPANSIEMLLSNFGGQLGLWMSCSVVCVIEIIEVFFIDFFSIIARRQWQKAKEWWAWKQAPPCPEAPRSPQGQDNPALDIDDDLPTFNSALHLPPALGTQVPGTPPPKYNTLRLERAFSNQLTDTQMLDEL

Reference: publication PMC6375906
